Experimental data as given in the supplement of paper PMC12819154, “High-throughput peptide-centric local stability assay extends protein–ligand identification to membrane proteins, tissues and bacteria” (Nature Structural & Molecular Biology, 2025).
The other results are listed elsewhere or left out. Small differences around the control level are noise.

The chains behind the UniProt entries cited, without tags or fusion partners. Where a name states a change or a piece, a line headed by the entry shows the natural chain unless it says otherwise.
UniProt Q3UGR5: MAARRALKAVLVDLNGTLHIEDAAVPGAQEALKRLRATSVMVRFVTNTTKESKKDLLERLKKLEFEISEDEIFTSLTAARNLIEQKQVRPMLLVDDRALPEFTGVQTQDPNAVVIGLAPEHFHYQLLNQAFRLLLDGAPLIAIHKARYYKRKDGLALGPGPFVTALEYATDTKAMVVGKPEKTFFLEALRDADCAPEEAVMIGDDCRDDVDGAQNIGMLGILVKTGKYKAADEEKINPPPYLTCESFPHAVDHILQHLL
UniProt Q3U0S6: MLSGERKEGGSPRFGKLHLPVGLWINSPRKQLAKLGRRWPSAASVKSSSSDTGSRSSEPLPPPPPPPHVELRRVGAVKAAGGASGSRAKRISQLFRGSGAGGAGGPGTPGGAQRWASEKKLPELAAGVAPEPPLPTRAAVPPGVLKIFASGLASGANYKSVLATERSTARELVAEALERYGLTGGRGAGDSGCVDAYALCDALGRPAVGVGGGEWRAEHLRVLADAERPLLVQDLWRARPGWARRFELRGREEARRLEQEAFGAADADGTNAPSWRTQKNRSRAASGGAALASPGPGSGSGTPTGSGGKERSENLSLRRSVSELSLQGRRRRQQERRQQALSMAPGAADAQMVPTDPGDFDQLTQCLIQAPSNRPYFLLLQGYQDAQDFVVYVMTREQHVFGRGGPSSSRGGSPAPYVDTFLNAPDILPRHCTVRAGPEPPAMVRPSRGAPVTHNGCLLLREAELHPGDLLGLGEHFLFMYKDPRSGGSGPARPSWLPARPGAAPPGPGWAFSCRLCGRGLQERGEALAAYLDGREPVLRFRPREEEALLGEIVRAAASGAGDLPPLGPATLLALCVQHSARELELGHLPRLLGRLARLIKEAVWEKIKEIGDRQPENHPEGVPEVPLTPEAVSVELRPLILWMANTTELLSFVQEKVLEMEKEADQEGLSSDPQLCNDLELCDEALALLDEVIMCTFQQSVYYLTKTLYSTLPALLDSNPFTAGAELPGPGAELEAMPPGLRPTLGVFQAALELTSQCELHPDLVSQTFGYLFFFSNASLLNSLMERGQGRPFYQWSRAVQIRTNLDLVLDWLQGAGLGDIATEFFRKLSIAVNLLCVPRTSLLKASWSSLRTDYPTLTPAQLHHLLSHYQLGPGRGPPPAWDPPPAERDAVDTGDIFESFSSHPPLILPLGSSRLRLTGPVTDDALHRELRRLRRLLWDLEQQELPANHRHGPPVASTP
UniProt Q4VA53: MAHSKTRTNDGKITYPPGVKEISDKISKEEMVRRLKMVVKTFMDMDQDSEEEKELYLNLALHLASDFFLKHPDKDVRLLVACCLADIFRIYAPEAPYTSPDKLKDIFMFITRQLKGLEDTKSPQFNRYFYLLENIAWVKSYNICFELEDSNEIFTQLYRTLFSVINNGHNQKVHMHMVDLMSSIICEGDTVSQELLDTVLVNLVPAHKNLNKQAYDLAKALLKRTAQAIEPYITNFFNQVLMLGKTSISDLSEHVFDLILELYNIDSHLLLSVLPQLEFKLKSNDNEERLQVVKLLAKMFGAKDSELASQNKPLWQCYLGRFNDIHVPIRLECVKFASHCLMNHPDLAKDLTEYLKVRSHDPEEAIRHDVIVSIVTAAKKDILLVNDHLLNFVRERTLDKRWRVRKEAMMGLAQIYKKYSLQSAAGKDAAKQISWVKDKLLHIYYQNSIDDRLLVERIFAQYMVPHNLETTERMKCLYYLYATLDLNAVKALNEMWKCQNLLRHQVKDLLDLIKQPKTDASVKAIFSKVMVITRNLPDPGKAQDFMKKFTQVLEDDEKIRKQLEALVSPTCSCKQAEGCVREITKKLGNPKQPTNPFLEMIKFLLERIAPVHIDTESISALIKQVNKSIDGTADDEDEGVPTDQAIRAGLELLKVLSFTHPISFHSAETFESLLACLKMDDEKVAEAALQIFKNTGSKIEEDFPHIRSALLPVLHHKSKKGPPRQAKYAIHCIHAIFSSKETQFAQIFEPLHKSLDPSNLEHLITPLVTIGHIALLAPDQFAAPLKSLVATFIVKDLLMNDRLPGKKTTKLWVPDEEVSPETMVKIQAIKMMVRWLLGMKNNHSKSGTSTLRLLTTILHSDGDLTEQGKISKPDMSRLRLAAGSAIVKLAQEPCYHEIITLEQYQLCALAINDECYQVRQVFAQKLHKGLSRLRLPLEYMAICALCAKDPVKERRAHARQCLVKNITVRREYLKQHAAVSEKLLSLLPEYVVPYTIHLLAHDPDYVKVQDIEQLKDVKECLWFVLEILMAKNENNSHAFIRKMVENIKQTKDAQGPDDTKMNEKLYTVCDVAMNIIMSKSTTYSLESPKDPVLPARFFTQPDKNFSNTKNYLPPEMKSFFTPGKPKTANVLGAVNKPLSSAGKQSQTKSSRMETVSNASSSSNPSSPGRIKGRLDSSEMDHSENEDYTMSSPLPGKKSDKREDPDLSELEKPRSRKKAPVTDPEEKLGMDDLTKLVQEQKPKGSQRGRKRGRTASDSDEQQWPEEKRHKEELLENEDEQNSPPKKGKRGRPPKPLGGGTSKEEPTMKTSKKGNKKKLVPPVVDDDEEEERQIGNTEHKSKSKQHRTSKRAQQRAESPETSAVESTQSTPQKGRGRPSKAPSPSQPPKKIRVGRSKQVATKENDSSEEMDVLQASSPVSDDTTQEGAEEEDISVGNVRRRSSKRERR
UniProt Q06890, whole entry: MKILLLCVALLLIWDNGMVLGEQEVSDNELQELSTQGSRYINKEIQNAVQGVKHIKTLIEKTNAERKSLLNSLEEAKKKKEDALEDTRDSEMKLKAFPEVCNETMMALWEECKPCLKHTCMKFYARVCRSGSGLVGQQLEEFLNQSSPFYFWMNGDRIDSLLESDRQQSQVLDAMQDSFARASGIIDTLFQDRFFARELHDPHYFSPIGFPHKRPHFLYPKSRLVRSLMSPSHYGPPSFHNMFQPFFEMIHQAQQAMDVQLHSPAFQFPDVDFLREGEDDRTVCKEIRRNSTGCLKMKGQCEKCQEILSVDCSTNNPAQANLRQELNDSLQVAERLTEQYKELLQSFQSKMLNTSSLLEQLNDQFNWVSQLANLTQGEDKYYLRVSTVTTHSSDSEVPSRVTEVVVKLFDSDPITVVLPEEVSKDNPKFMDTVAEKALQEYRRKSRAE
UniProt Q45VN2: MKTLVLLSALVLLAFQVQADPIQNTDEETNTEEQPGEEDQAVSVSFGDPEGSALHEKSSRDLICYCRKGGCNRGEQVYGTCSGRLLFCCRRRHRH
UniProt Q3URS9: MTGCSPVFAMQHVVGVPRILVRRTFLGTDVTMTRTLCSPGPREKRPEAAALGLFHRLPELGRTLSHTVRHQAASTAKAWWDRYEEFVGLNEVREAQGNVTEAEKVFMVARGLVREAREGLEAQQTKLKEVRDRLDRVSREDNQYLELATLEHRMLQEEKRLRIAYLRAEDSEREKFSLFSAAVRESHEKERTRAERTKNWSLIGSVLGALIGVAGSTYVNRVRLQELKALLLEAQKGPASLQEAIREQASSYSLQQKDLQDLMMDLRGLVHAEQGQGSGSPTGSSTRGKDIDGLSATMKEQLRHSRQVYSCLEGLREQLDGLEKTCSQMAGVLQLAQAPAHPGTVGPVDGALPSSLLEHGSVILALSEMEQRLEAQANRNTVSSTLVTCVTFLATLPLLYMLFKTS
UniProt P99028: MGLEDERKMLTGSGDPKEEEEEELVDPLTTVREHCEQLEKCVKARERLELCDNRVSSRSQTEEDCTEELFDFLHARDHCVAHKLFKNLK
UniProt P99026: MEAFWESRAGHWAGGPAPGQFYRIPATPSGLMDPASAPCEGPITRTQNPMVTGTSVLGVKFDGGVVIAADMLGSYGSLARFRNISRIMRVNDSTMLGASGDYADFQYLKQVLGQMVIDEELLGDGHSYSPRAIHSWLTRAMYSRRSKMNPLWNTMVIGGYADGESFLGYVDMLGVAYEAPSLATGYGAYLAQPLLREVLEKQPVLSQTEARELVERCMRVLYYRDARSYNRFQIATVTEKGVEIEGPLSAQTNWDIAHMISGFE
UniProt Q3UDR8: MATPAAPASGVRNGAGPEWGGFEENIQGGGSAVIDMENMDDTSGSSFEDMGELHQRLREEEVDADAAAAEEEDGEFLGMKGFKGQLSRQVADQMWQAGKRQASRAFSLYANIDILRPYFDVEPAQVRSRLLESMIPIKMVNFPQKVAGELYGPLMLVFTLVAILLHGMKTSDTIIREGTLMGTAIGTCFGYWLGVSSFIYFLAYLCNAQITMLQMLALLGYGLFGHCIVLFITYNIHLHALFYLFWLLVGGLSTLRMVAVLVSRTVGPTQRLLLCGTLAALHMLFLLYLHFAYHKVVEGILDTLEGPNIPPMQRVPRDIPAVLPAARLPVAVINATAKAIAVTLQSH
UniProt Q07968: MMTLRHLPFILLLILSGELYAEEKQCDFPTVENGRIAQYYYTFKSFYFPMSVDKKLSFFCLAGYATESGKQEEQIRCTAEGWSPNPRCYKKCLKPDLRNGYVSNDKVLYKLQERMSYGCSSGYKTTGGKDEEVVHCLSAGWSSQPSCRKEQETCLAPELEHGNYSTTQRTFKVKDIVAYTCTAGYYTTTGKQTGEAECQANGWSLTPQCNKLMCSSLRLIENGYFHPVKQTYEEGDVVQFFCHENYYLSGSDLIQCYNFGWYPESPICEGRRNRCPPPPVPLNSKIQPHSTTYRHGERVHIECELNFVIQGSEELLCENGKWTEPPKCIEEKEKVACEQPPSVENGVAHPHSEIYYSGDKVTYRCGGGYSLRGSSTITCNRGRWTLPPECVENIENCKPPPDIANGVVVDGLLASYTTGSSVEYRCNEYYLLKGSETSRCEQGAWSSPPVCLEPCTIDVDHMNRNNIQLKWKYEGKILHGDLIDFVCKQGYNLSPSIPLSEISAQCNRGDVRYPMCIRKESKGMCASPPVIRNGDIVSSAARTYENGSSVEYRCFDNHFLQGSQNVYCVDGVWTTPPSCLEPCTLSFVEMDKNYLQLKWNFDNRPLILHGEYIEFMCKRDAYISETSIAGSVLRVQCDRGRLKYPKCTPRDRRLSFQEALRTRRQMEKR
UniProt Q0P678: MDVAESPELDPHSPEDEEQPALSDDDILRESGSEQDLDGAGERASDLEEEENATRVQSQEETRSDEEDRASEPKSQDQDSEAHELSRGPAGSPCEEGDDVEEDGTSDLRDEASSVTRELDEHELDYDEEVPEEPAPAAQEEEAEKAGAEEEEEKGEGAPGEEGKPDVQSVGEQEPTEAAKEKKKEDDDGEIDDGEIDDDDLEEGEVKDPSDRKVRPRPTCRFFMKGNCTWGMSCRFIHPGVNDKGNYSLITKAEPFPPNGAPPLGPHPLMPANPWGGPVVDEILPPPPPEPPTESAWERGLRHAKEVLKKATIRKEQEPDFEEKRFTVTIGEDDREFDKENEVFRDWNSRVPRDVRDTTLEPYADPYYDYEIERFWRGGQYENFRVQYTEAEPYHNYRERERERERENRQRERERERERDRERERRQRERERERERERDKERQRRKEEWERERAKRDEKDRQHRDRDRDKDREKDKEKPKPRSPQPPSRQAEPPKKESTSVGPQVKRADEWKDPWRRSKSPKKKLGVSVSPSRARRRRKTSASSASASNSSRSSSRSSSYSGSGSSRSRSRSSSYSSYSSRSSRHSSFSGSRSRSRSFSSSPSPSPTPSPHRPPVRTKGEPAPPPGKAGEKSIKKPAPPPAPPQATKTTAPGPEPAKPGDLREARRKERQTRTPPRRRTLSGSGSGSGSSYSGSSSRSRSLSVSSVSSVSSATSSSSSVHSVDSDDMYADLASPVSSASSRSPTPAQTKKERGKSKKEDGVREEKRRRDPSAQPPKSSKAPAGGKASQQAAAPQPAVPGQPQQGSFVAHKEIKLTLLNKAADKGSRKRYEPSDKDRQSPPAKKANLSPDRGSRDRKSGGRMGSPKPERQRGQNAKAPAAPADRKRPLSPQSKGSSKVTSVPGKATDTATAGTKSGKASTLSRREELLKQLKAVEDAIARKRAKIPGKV
UniProt Q3U4I7: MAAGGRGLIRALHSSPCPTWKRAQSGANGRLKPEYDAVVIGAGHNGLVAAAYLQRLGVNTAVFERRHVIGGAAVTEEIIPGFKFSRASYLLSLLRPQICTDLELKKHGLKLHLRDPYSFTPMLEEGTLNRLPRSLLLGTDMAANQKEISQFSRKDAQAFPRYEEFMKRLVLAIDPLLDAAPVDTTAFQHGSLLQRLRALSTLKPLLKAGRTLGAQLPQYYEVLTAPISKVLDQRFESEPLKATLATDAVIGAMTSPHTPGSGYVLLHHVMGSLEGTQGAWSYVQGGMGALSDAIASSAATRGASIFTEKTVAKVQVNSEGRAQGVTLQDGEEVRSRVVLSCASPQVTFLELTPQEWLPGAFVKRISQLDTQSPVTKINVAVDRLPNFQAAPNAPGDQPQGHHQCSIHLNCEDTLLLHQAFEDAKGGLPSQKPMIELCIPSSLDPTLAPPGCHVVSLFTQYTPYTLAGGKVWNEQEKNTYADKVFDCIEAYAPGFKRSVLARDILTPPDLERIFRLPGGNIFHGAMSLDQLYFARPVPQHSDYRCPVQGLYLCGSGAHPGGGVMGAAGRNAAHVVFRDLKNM

What follows are targets tested with CN[C@@H]1C[C@H]2O[C@@](C)([C@@H]1OC)n1c3ccccc3c3c4c(c5c6ccccc6n2c5c31)C(=O)NC4 [staurosporine] (assay: log2 fold change of pooled soluble protein (PISA), ligand vs vehicle (log2 ratio); higher = more thermally stabilized). Conditions: ligand concentration: 20 uM; assay format: PISA pool 52.9/55.5/58.6 C.

| Target | log2 fold change of pooled soluble protein |
| --- | --- |
| UniProt P97797 | 0.15 |
| UniProt Q5FW57 | 0.12 |
| UniProt Q3UGR5 | -0.341 |
| UniProt Q07797 | -0.0404 |
| UniProt Q00724 | -0.0123 |
| UniProt Q3U0S6 | -0.285 |
| UniProt Q03249 | 0.0398 |
| UniProt Q4VA53 | -0.0429 |
| UniProt Q3UZA1 | -0.00135 |
| UniProt Q3UDP0 | -0.167 |
| UniProt Q1HFZ0 | 0.067 |
| UniProt Q3ULJ0 | -0.103 |
| UniProt Q06890 | -0.0554 |
| UniProt Q45VN2 | 0.172 |
| UniProt Q3URS9 | -0.151 |
| UniProt P99028 | 0.171 |
| UniProt Q5NBU8 | -0.183 |
| UniProt P99026 | -0.102 |

An excerpt of these results, with each value named:
UniProt Q4VA53
  log2 fold change of pooled soluble protein: -0.0429
UniProt Q3UZA1
  log2 fold change of pooled soluble protein: -0.00135

Further results:

| Target | log2 fold change of pooled soluble protein |
| --- | --- |
| UniProt Q3V0K9 | 0.457 |
| UniProt Q07113 | 0.0665 |
| UniProt Q00519 | -0.0669 |
| UniProt Q3UMT1 | -0.0576 |
| UniProt Q3UZZ6 | 0.0235 |
| UniProt Q3UDR8 | -0.113 |
| UniProt Q3U3R4 | -0.013 |
| UniProt Q3TCN2 | 0.0762 |
| UniProt Q07968 | -0.0555 |
| UniProt Q0P678 | 0.0839 |
| UniProt Q4VBD2 | 0.00374 |
| UniProt Q283N4 | -0.164 |
| UniProt Q3V3R4 | -0.0202 |
| UniProt P97807 | -0.0891 |
| UniProt Q14DH7 | -0.0169 |
| UniProt Q5QGU6 | -0.0264 |
| UniProt Q3U4I7 | 0.0549 |
| UniProt P98192 | -0.282 |
